Source: the supplement of paper PMC4683952
Counter-ions that a name gives are not always drawn. Among all 1,200 compounds or so, about 50 (4%) showed activity. No stated cut-off is given here; in the data, all actives reach 1.3 or more but so do some inactives. This is one part of the list.

The molecules below were run on Lgr5 (MarsCy1-Lgr5-EGFP, U2OS) (assay: cell-surface Lgr5 expression (SCi1 fluorescence, background-subtracted) relative to WT DMSO (fold of DMSO control); higher = more Lgr5 at the plasma membrane, active = hit call of the paper). Conditions: U2OS MarsCy1-Lgr5-EGFP stable; treatment time: overnight; 16 µM; library: Johns Hopkins Clinical Compound Library.
With `Nc1nccs1` [Aminothiazole (2-aminothiazole)] the “cell-surface Lgr5 expression” value was inactive: 0.92.
`NC(=O)c1cccnc1` [Niacinamide hydrochloride] was tested, and the “cell-surface Lgr5 expression” value was inactive: 1.05.
For `Nc1c(N=Nc2ccc([N+](=O)[O-])cc2)c(S(=O)(=O)O)cc2cc(S(=O)(=O)O)c(N=Nc3ccccc3)c(O)c12` [Napthol blue black], the “cell-surface Lgr5 expression” value was inactive: 0.637.
In the case of `CC(C)(Oc1ccc(C2CC2(Cl)Cl)cc1)C(=O)O` (stereo unspecified) [Ciprofibrate], the “cell-surface Lgr5 expression” value is reported as inactive: 1.25.
With `CCn1cc(C(=O)O)c(=O)c2cc(F)c(N3CCNCC3)cc21` [Norfloxacin] the “cell-surface Lgr5 expression” value was inactive: 1.21.
For `O=C(c1ccc(OCCN2CCCCC2)cc1)c1c(-c2ccc(O)cc2)sc2cc(O)ccc12` [Raloxifene hydrochloride], the “cell-surface Lgr5 expression” value was inactive: 0.648.
For `O=P([O-])([O-])[O-].[Fe+3]` [Ferric phosphate], the “cell-surface Lgr5 expression” value was inactive: 0.912.
In the case of `NS(=O)(=O)c1cc2c(cc1C(F)(F)F)NC(Cc1ccccc1)NS2(=O)=O` (stereo unspecified) [Bendroflumethiazide], the “cell-surface Lgr5 expression” value is reported as inactive: 1.02.
`S=P(N1CC1)(N1CC1)N1CC1` [Thiotepa (Triethylenethiophosphoramide)] was tested, and the “cell-surface Lgr5 expression” value was inactive: 1.19.
With `COc1cc(N)c(Cl)cc1C(=O)NC1CCN(Cc2ccccc2)CC1` [Clebopride] the “cell-surface Lgr5 expression” value was inactive: 1.08.
In the case of `Nc1nc(N)nc(-c2cc(Cl)ccc2Cl)n1` [Irsogladine maleate], the “cell-surface Lgr5 expression” value is reported as inactive: 1.11.
In the case of `c1ccc(Cc2nc3ccccc3[nH]2)cc1` [Bendazol (2-Benzylbenzimidazole)], the “cell-surface Lgr5 expression” value is reported as inactive: 1.05.
In the case of `COc1c(O)cc2c(c1O)[C@@H]1O[C@H](CO)[C@@H](O)[C@H](O)[C@H]1OC2=O` [Bergenin monohydrate], the “cell-surface Lgr5 expression” value is reported as inactive: 1.27.
With `COc1ccccc1OCCNCC(O)COc1cccc2[nH]c3ccccc3c12` (stereo unspecified) [Carvedilol] the “cell-surface Lgr5 expression” value was inactive: 1.2.
For `O=C(O)c1cc(S(=O)(=O)O)ccc1O` [Sulfosalicylic acid (5-Sulfosalicylic acid dihydrate)], the “cell-surface Lgr5 expression” value was inactive: 1.11.
`O=C(NCC1CCCCN1)c1cc(OCC(F)(F)F)ccc1OCC(F)(F)F` (stereo unspecified) [Flecainide] was tested, and the “cell-surface Lgr5 expression” value was inactive: 1.21.
In the case of `COC(=O)Nc1nc2cc(C(=O)c3ccc(F)cc3)ccc2[nH]1` [Flubendazole], the “cell-surface Lgr5 expression” value is reported as inactive: 0.859.
For `O=C(O[C@@H]1C[C@@H]2C[C@H]3C[C@H](C1)N2CC3=O)c1c[nH]c2ccccc12` [Dolasetron mesylate (Anzamet)], the “cell-surface Lgr5 expression” value was inactive: 0.948.
In the case of `O=S(=O)([O-])[O-].[Zn+2]` [Zinc sulfate], the “cell-surface Lgr5 expression” value is reported as inactive: 0.625.
For `CCCCCCCC/C=C\CCCCCCCC(=O)O` [Oleic acid (cis-9-Octadecenoic acid)], the “cell-surface Lgr5 expression” value was inactive: 0.862.
For `CC(C)(C)NCC(O)c1ccc(O)c(CO)c1` (stereo unspecified) [Albuterol (Salbutamol)], the “cell-surface Lgr5 expression” value was inactive: 1.22.
With `N.O.O=P([O-])([O-])O.[Mg+2]` [Ammonium magnesium phosphate hydrate] the “cell-surface Lgr5 expression” value was inactive: 1.04.
In the case of `Cn1c(=O)c2c(ncn2C)n(C)c1=O` [Caffeine citrate], the “cell-surface Lgr5 expression” value is reported as inactive: 0.554.
With `Cn1c(=O)c2c(ncn2C)n(C)c1=O` [Caffeine-sodium benzoate] the “cell-surface Lgr5 expression” value was inactive: 0.583.
In the case of `CN[C@@H]1CCc2[nH]c3ccc(C(N)=O)cc3c2C1` [Frovatriptan succinate], the “cell-surface Lgr5 expression” value is reported as inactive: 0.445.
For `CN(C)CCCC1(c2ccc(F)cc2)OCc2cc(C#N)ccc21` (stereo unspecified) [Citalopram], the “cell-surface Lgr5 expression” value was inactive: 0.474.
In the case of `CCCC(CCC)C(=O)O` [Valproic acid (2-propylpentanoic acid)], the “cell-surface Lgr5 expression” value is reported as inactive: 0.932.
In the case of `Cc1cc(N)c2ccccc2c1O` [Vitamin K5 hydrochloride], the “cell-surface Lgr5 expression” value is reported as inactive: 0.778.
With `Cc1onc(-c2ccccc2)c1C(=O)N[C@@H]1C(=O)N2[C@@H]1SC(C)(C)[C@@H]2C(=O)O` [Oxacillin] the “cell-surface Lgr5 expression” value was inactive: 0.726.
With `OCC(O)CN1CCN(c2ccccc2)CC1` (stereo unspecified) [Dropropizine] the “cell-surface Lgr5 expression” value was inactive: 1.14.
In the case of `CN(C)CCC(c1ccc(Cl)cc1)c1ccccn1` (stereo unspecified) [Chlorpheniramine], the “cell-surface Lgr5 expression” value is reported as inactive: 1.18.
For `C=C1c2c(Cl)ccc(O)c2C(=O)C2=C(O)[C@]3(O)C(=O)C(C(N)=O)=C(O)[C@@H](N(C)C)[C@@H]3[C@@H](O)[C@H]12` [Meclocycline], the “cell-surface Lgr5 expression” value was inactive: 0.772.
With `COC1=CC(=O)C[C@@H](C)[C@]12Oc1c(Cl)c(OC)cc(OC)c1C2=O` [Griseofulvin] the “cell-surface Lgr5 expression” value was inactive: 0.802.
With `Oc1cccc(O)c1O` [Pyrogallol] the “cell-surface Lgr5 expression” value was inactive: 1.15.
For `NCCc1cc[nH]n1` [Betazole], the “cell-surface Lgr5 expression” value was inactive: 1.05.
With `NCCC(O)(P(=O)(O)O)P(=O)(O)O` [Pamidronate disodium] the “cell-surface Lgr5 expression” value was inactive: 0.683.
With `CN(C)CCN(Cc1ccc(Cl)cc1)c1ccccn1` [Chloropyramine] the “cell-surface Lgr5 expression” value was inactive: 1.27.
With `NS(=O)(=O)Cc1noc2ccccc12` [Zonisamide] the “cell-surface Lgr5 expression” value was inactive: 1.07.
In the case of `Cc1ccc(C)c(OCCCC(C)(C)C(=O)O)c1` [Gemfibrozil], the “cell-surface Lgr5 expression” value is reported as inactive: 1.02.
For `NC(=O)c1ccc[n+]([C@@H]2O[C@H](COP(=O)([O-])OP(=O)(O)OC[C@H]3O[C@@H](n4cnc5c(N)ncnc54)[C@H](O)[C@@H]3O)[C@@H](O)[C@H]2O)c1` [Nadide (beta nicotinamide adenine dinucleotide phosphate)], the “cell-surface Lgr5 expression” value was inactive: 1.08.
With `Cc1cc2c(OCC(CNC(C)(C)C)OC(=O)c3ccccc3)cccc2[nH]1` (stereo unspecified) [Bopindolol Maleate] the “cell-surface Lgr5 expression” value was inactive: 1.3.
In the case of `O=C(O)C(O)C(O)C(=O)O` [Tartaric acid L-(+)], the “cell-surface Lgr5 expression” value is reported as inactive: 1.1.
With `NC(=O)OCC(O)COc1ccc(Cl)cc1` (stereo unspecified) [Chlorphenesin carbamate] the “cell-surface Lgr5 expression” value was inactive: 1.01.
For `COC(=O)CCc1ccc(OCC(O)CNC(C)C)cc1` (stereo unspecified) [Esmolol], the “cell-surface Lgr5 expression” value was inactive: 1.29.
For `C[C@]12CCC(=O)C=C1C=C[C@@H]1[C@@H]2CC[C@@]2(C)[C@H]1CC[C@@]21CCC(=O)O1` [Canrenone], the “cell-surface Lgr5 expression” value was inactive: 1.31.
For `O=C(O)c1ccc(NC(=O)[C@H](Cc2ccc(O)cc2)NC(=O)c2ccccc2)cc1`, the “cell-surface Lgr5 expression” value was inactive: 1.04.
For `CN(C)CC[C@@H](c1ccc(Br)cc1)c1ccccn1` (racemic) [Brompheniramine (+/-)-], the “cell-surface Lgr5 expression” value was inactive: 1.15.
`[F-].[Na+]` [Sodium fluoride] was tested, and the “cell-surface Lgr5 expression” value was inactive: 0.593.
For `CC1(C)S[C@@H]2[C@H](NC(=O)COc3ccccc3)C(=O)N2[C@H]1C(=O)O`, the “cell-surface Lgr5 expression” value was inactive: 0.694.
With `CC1(C)S[C@@H]2[C@H](NC(=O)COc3ccccc3)C(=O)N2[C@H]1C(=O)O` [Penicillin V (phenoxymethyl penicillinic acid)] the “cell-surface Lgr5 expression” value was inactive: 1.08.
With `Cc1nnc(SCC2=C(C(=O)O)N3C(=O)[C@@H](NC(=O)Cn4cnnn4)[C@H]3SC2)s1` [Cefazolin] the “cell-surface Lgr5 expression” value was inactive: 1.16.
`c1ccc2c(c1)ccc1ccccc12` [Phenanthrene] was tested, and the “cell-surface Lgr5 expression” value was inactive: 1.28.
With `O=c1[nH]c(=O)n([C@H]2C[C@H](O)[C@@H](CO)O2)cc1C(F)(F)F` [Trifluridine] the “cell-surface Lgr5 expression” value was inactive: 0.463.
In the case of `Cc1cc2nc3c(=O)[nH]c(=O)nc-3n(C[C@H](O)[C@H](O)[C@H](O)COP(=O)(O)OP(=O)(O)OC[C@H]3O[C@@H](n4cnc5c(N)ncnc54)[C@H](O)[C@@H]3O)c2cc1C` [Flavin adenine dinucleotide], the “cell-surface Lgr5 expression” value is reported as inactive: 1.01.
With `S=c1[nH]cnc2nc[nH]c12` [6-Mercaptopurine monohydrate] the “cell-surface Lgr5 expression” value was active: 1.67.
`C=N[C@@H](C(=O)N[C@@H]1C(=O)N2[C@@H]1SC(C)(C)[C@@H]2C(=O)O)c1ccccc1` [Metampicillin] was tested, and the “cell-surface Lgr5 expression” value was inactive: 0.953.
In the case of `Cc1cccc(Nc2ccncc2S(=O)(=O)NC(=O)NC(C)C)c1` [Torsemide], the “cell-surface Lgr5 expression” value is reported as inactive: 1.04.
`COc1cc2c(cc1OC)-c1c/c(=N\c3c(C)cc(C)cc3C)n(C)c(=O)n1CC2` [Trequinsin hydrochloride] was tested, and the “cell-surface Lgr5 expression” value was inactive: 0.962.
`NC1=NCC2c3ccccc3Cc3ccccc3N12` (stereo unspecified) [Epinastine hydrochloride] was tested, and the “cell-surface Lgr5 expression” value was inactive: 1.1.
In the case of `CC(C)Cn1cnc2c(N)nc3ccccc3c21` [Imiquimod], the “cell-surface Lgr5 expression” value is reported as inactive: 1.06.
In the case of `CC[C@H](C)[C@H](NC(=O)CN)C(=O)N[C@H](C(=O)N[C@@H](CCC(=O)O)C(=O)N[C@@H](CCC(N)=O)C(=O)N[C@H]1CSSC[C@@H]2NC(=O)[C@H](C(C)C)NC(=O)[C@H](CO)NC(=O)[C@H](C)NC(=O)[C@H](CSSC[C@H](NC(=O)[C@H](CC(C)C)NC(=O)[C@H](Cc3cnc[nH]3)NC(=O)[C@H](CCC(N)=O)NC(=O)[C@H](CC(N)=O)NC(=O)[C@@H](NC(=O)[C@@H](N)Cc3ccccc3)C(C)C)C(=O)NCC(=O)N[C@@H](CO)C(=O)N[C@@H](Cc3cnc[nH]3)C(=O)N[C@@H](CC(C)C)C(=O)N[C@@H](C(C)C)C(=O)N[C@@H](CCC(=O)O)C(=O)N[C@@H](C)C(=O)N[C@@H](CC(C)C)C(=O)N[C@@H](Cc3ccc(O)cc3)C(=O)N[C@@H](CC(C)C)C(=O)N[C@@H](C(C)C)C(=O)N[C@H](C(=O)NCC(=O)N[C@@H](CCC(=O)O)C(=O)N[C@@H](CCCNC(=N)N)C(=O)NCC(=O)N[C@@H](Cc3ccccc3)C(=O)N[C@@H](Cc3ccccc3)C(=O)N[C@@H](Cc3ccc(O)cc3)C(=O)N[C@H](C(=O)N3CCC[C@H]3C(=O)N[C@@H](CCCCN)C(=O)N[C@@H](C)C(=O)O)[C@@H](C)O)CSSC[C@@H](C(=O)N[C@@H](CC(N)=O)C(=O)O)NC(=O)[C@H](Cc3ccc(O)cc3)NC(=O)[C@H](CC(N)=O)NC(=O)[C@H](CCC(=O)O)NC(=O)[C@H](CC(C)C)NC(=O)[C@H](CCC(N)=O)NC(=O)[C@H](Cc3ccc(O)cc3)NC(=O)[C@H](CC(C)C)NC(=O)[C@H](CO)NC2=O)NC1=O)C(C)C` [Regular iletin II (Insulin injection, USP Purified pork)], the “cell-surface Lgr5 expression” value is reported as inactive: 0.953.
